Some of these results come from one statement about several compounds together.
How the values were obtained:
Assay type in all cases: in vivo
[1] = tested on: diamondback moth (Plutella xylostella (L.)); assay: Test A: control of diamondback moth, foliar spray on mustard plant; details: assessed after 6 days, very good to excellent levels of control efficacy
[2] = tested on: fall armyworm (Spodoptera frugiperda (J. E. Smith)); assay: Test B: control of fall armyworm, foliar spray on corn (maize) plant; details: assessed after 6 days, very good to excellent levels of control efficacy
[3] = tested on: potato leafhopper (Empoasca fabae (Harris)); assay: Test D: control of potato leafhopper through contact and/or systemic means; details: Soleil bean plant, assessed after 6 days
Protocol: (§1) Formulation and Spray Methodology for Tests A-H
(§2) Test compounds were formulated using a solution containing 10% acetone, 90% water and 300 ppm Activator 90® non-ionic surfactant (Loveland Products, Loveland, Colo., USA). The formulated compounds were applied in 1 mL of liquid through an atomizer nozzle positioned 1.27 cm (0.5 inches) above the top of each test unit. Test compounds were sprayed at the rates indicated, and each test was replicated three times.
For evaluating control of potato leafhopper (Empoasca fabae (Harris)) through contact and/or systemic means, the test unit consisted of a small open container with a 5-6-day-old Soleil bean plant (primary leaves emerged) inside. White sand was added to the top of the soil, and one of the primary leaves was excised prior to application of the test compound.
Test compounds were formulated and sprayed at 250, 50, 10 and 2 ppm. After spraying of the formulated test compound, the test units were allowed to dry for 1 hour before they were post-infested with 5 potato leafhoppers (18-to-21-day-old adults). A black, screened cap was placed on the top of the test unit, and the test units were held for 6 days in a growth chamber at 20° C. and 70% relative humidity. Each test unit was then visually assessed for insect mortality.

[4] = tested on: cotton melon aphid (Aphis gossypii (Glover)); assay: Test F: control of cotton melon aphid through contact and/or systemic means; details: okra plant, assessed after 6 days
Protocol: as §1, §2
For evaluating control of cotton melon aphid (Aphis gossypii (Glover)) through contact and/or systemic means, the test unit consisted of a small open container with a 5-day-old okra plant inside. This was pre-infested with 30-40 insects on a piece of leaf according to the cut-leaf method, and the soil of the test unit was covered with a layer of sand.
Test compounds were formulated and sprayed at 250, 50 and 10 ppm. After spraying, the test units were maintained in a growth chamber for 6 days at 19° C. and 70% relative humidity. Each test unit was then visually assessed for insect mortality.

[5] = tested on: Western Flower Thrips (Frankliniellla occidentalis (Pergande)); assay: Test H: control of Western Flower Thrips through contact and/or systemic means; details: Soleil bean plant, assessed after 6 days, very good to excellent levels of control efficacy
[6] = tested on: sweetpotato whitefly (Bemisia tabaci (Gennadius)); assay: Test G: control of sweetpotato whitefly through contact and/or systemic means; details: cotton plant infested with eggs, assessed after 13 days
Protocol: as §1, §2
For evaluating control of the sweetpotato whitefly (Bemisia tabaci (Gennadius)) through contact and/or systemic means, the test unit consisted of a small open container with a 12-14-day-old cotton plant inside. Prior to the spray application, both cotyledons were removed from the plant, leaving one true leaf for the assay. Adult whiteflies were allowed to lay eggs on the plant and then were removed from the test unit. Cotton plants infested with at least 15 eggs were submitted to the test for spraying.
Test compounds were formulated and sprayed at 250, 50, and 10 ppm. After spraying, the test units were allowed to dry for 1 hour. The cylinders were then removed, and the units were taken to a growth chamber and held for 13 days at 28° C. and 50-70% relative humidity. Each test unit was then visually assessed for insect mortality.

[7] = tested on: green peach aphid (Myzus persicae (Sulzer)); assay: Test E: control of green peach aphid through contact and/or systemic means; details: sprayed at 50 ppm; radish plant; assessed after 6 days
Protocol: as §1, §2
For evaluating control of green peach aphid (Myzus persicae (Sulzer)) through contact and/or systemic means, the test unit consisted of a small open container with a 12-15-day-old radish plant inside. This was pre-infested by placing on a leaf of the test plant 30-40 aphids on a piece of leaf excised from a culture plant (cut-leaf method). The aphids moved onto the test plant as the leaf piece desiccated. After pre-infestation, the soil of the test unit was covered with a layer of sand.
Test compounds were formulated and sprayed at 250, 50 and 10 ppm. After spraying of the formulated test compound, each test unit was allowed to dry for 1 hour and then a black, screened cap was placed on top. The test units were held for 6 days in a growth chamber at 19-21° C. and 50-70% relative humidity. Each test unit was then visually assessed for insect mortality.

| Compound | control efficacy: feeding damage (40% or less feeding damage and/or 100% mortality) ([1]; sprayed at 2 ppm) [%] | control efficacy: feeding damage (40% or less feeding damage and/or 100% mortality) ([1]; sprayed at 10 ppm) [%] | control efficacy: feeding damage (40% or less feeding damage and/or 100% mortality) ([2]; sprayed at 2 ppm) [%] | control efficacy: feeding damage (40% or less feeding damage and/or 100% mortality) ([2]; sprayed at 10 ppm) [%] | mortality ([3]; sprayed at 50 ppm) | control efficacy: plant damage (30% or less plant damage and/or 100% mortality) ([5]; sprayed at 2 ppm) [%] | control efficacy: plant damage (30% or less plant damage and/or 100% mortality) ([5]; sprayed at 10 ppm) [%] | mortality ([3]; sprayed at 10 ppm) | mortality ([4]; sprayed at 50 ppm) | mortality ([6]; sprayed at 50 ppm) | other results |
| --- | --- | --- | --- | --- | --- | --- | --- | --- | --- | --- | --- |
| COC(=O)C(C)NC(=O)c1ccc(C2=NOC(c3cc(Cl)c(F)c(Cl)c3)(C(F)(F)F)C2)c2ccccc12 (mixture of isomers) [Compound 39] | ≤ 40 | ≤ 40 | ≤ 40 | ≤ 40 | at least 80% | ≤ 30 | ≤ 30 |  |  |  | control efficacy: feeding damage (40% or less feeding damage and/or 100% mortality) ([1]; sprayed at 50 ppm): ≤ 40%; control efficacy: feeding damage (40% or less feeding damage and/or 100% mortality) ([1]; sprayed at 250 ppm): ≤ 40%; control efficacy: feeding damage (40% or less feeding damage and/or 100% mortality) ([2]; sprayed at 50 ppm): ≤ 40%; control efficacy: feeding damage (40% or less feeding damage and/or 100% mortality) ([2]; sprayed at 250 ppm): ≤ 40%; mortality ([3]; sprayed at 250 ppm): at least 80%; mortality ([4]; sprayed at 250 ppm): at least 80%; control efficacy: plant damage (30% or less plant damage and/or 100% mortality) ([5]; sprayed at 50 ppm): ≤ 30%; control efficacy: plant damage (30% or less plant damage and/or 100% mortality) ([5]; sprayed at 250 ppm): ≤ 30% |
| CC(NC(=O)c1ccc(C2=NOC(c3cc(Cl)c(F)c(Cl)c3)(C(F)(F)F)C2)c2ccccc12)C(=O)O (mixture of isomers) [Compound 40] | ≤ 40 | ≤ 40 |  |  | at least 80% |  |  |  |  |  | control efficacy: feeding damage (40% or less feeding damage and/or 100% mortality) ([1]; sprayed at 50 ppm): ≤ 40%; control efficacy: feeding damage (40% or less feeding damage and/or 100% mortality) ([1]; sprayed at 250 ppm): ≤ 40%; control efficacy: feeding damage (40% or less feeding damage and/or 100% mortality) ([2]; sprayed at 50 ppm): ≤ 40%; control efficacy: feeding damage (40% or less feeding damage and/or 100% mortality) ([2]; sprayed at 250 ppm): ≤ 40%; mortality ([3]; sprayed at 250 ppm): at least 80%; mortality ([6]; sprayed at 250 ppm): at least 70%; control efficacy: plant damage (30% or less plant damage and/or 100% mortality) ([5]; sprayed at 50 ppm): ≤ 30%; control efficacy: plant damage (30% or less plant damage and/or 100% mortality) ([5]; sprayed at 250 ppm): ≤ 30% |
| CCNC(=O)[C@H](C)NC(=O)c1ccc(C2=NOC(c3cc(Cl)c(F)c(Cl)c3)(C(F)(F)F)C2)c2ccccc12 (stereo partly shown) [Compound 4] | ≤ 40 | ≤ 40 | ≤ 40 | ≤ 40 | at least 80% | ≤ 30 | ≤ 30 | at least 80% | at least 80% |  | mortality [7]: at least 80% |
| O=C(NCc1cnccn1)c1ccc(C2=NOC(c3cc(Cl)c(F)c(Cl)c3)(C(F)(F)F)C2)c2ccccc12 (stereo not shown) [Compound 16] | ≤ 40 | ≤ 40 | ≤ 40 | ≤ 40 | at least 80% | ≤ 30 | ≤ 30 | at least 80% | at least 80% |  | mortality ([3]; sprayed at 2 ppm): at least 80% |
| O=C(NCc1ccnnc1)c1ccc(C2=NOC(c3cc(Cl)c(F)c(Cl)c3)(C(F)(F)F)C2)c2ccccc12 (stereo not shown) [Compound 17] | ≤ 40 | ≤ 40 |  | ≤ 40 | at least 80% |  | ≤ 30 |  |  | at least 70% |  |
| CC(NC(=O)c1ccc(C2=NOC(c3cc(Cl)c(F)c(Cl)c3)(C(F)(F)F)C2)c2ccccc12)c1ncccn1 (stereo not shown) [Compound 19] | ≤ 40 | ≤ 40 | ≤ 40 | ≤ 40 | at least 80% |  | ≤ 30 | at least 80% |  |  | mortality ([4]; sprayed at 10 ppm): at least 80% |
| Cn1cc(CNC(=O)c2ccc(C3=NOC(c4cc(Cl)c(F)c(Cl)c4)(C(F)(F)F)C3)c3ccccc23)cn1 (stereo not shown) [Compound 22] | ≤ 40 | ≤ 40 |  | ≤ 40 |  | ≤ 30 | ≤ 30 |  | at least 80% |  |  |
| COCC(NC(=O)c1ccc(C2=NOC(c3cc(Cl)c(F)c(Cl)c3)(C(F)(F)F)C2)c2ccccc12)C(=O)O (stereo not shown) [Compound 42] |  | ≤ 40 |  |  | at least 80% |  |  |  |  | at least 70% | mortality ([6]; sprayed at 10 ppm): at least 70% |
| CC(C#N)NC(=O)[C@H](C)NC(=O)c1ccc(C2=NOC(c3cc(Cl)c(F)c(Cl)c3)(C(F)(F)F)C2)c2ccccc12 (stereo partly shown) [Compound 47] | ≤ 40 | ≤ 40 |  | ≤ 40 | at least 80% | ≤ 30 | ≤ 30 | at least 80% | at least 80% |  |  |
| O=C(NCc1ccccn1)c1ccc(C2=NOC(c3ccc(F)c(C(F)(F)F)c3)(C(F)(F)F)C2)c2ccccc12 (stereo not shown) [Compound 49] | ≤ 40 | ≤ 40 | ≤ 40 | ≤ 40 | at least 80% |  | ≤ 30 | at least 80% | at least 80% | at least 70% | mortality ([6]; sprayed at 10 ppm): at least 70% |
| COc1ccnc(CNC(=O)c2ccc(C3=NOC(c4cc(Cl)c(F)c(Cl)c4)(C(F)(F)F)C3)c3ccccc23)c1 (stereo not shown) [Compound 55] | ≤ 40 | ≤ 40 |  | ≤ 40 | at least 80% |  |  |  | at least 80% | at least 70% |  |
| CC(NC(=O)c1ccc(C2=NOC(c3cc(Cl)c(F)c(Cl)c3)(C(F)(F)F)C2)c2ccccc12)c1cnccn1 (stereo not shown) [Compound 59] |  |  | ≤ 40 |  |  | ≤ 30 |  |  |  |  | mortality ([4]; sprayed at 10 ppm): at least 80% |

— patent publication US11576382B2, “Naphthalene isoxazoline compounds for controlling invertebrate pests” (FMC Corporation, priority 2018, dated 2023)
